At least one compound was matched to its structure with a doubt left.
System: E. coli 14
Assay type: cell-based
Set-up: unit not given beside the values
Settings: 24 hours, 37°C

CC1(C)S[C@@H]2[C@H](NC(=O)[C@H](NC(=O)c3ccc(NC(=O)CC4C=CCC4)cc3)c3ccccc3)C(=O)N2[C@H]1C(=O)[O-].[Na+] (stereo partly drawn) [Example 8, sodium D(-)-α-(4-[2-cyclopentene-1-acetamido-benzoylamino])-benzylpenicillin]
MIC: 1<4

Source: patent US4001218A, “Penicillins” (Bayer Aktiengesellschaft, priority 1972, dated 1977)
